Results are given in words; binding and its absence hold for the method and conditions named. In cells and extracts the contact can be indirect. Some binding calls cover weakened binding; strength is not graded here.
Target: HA-tagged FAF1 (FAS-associated factor 1) (human) (UniProt Q9UNN5)
Test: co-IP; anti-HA agarose beads with nuclear lysates of HEK293 cells expressing HA-FAF1 and the doxycycline-induced p97 substrate trap variant; 3 h at 4 °C; IP buffer 50 mM Tris pH 8.0, 150 mM NaCl, 0.05% NP-40; western blot

By UniProt entry, the sequences of proteins in these tests, tags left out.
UniProt Q9UNN5: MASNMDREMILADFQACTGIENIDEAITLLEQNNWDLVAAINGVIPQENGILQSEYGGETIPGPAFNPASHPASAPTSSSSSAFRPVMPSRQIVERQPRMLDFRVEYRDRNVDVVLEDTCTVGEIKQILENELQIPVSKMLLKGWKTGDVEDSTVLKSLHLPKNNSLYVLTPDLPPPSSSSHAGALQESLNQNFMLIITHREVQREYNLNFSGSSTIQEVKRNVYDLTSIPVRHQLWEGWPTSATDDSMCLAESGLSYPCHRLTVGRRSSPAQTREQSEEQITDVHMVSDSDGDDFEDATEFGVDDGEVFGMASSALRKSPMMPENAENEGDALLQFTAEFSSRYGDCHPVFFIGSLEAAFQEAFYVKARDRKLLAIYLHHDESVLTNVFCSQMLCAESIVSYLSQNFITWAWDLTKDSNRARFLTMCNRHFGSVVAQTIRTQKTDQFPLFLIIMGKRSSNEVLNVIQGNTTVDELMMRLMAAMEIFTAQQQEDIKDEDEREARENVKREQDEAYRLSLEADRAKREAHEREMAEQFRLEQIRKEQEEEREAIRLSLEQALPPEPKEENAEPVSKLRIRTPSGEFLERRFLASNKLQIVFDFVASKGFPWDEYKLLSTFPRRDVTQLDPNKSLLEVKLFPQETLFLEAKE

B1: CDT-1 (human) (protein, UniProt Q9H211 1-546)
chain: MEQRRVTDFFARRRPGPPRIAPPKLACRTPSPARPALRAPASATSGSRKRARPPAAPGRDQARPPARRRLRLSVDEVSSPSTPEAPDIPACPSPGQKIKKSTPAAGQPPHLTSAQDQDTISELASCLQRARELGARVRALKASAQDAGESCTPEAEGRPEEPCGEKAPAYQRFHALAQPGLPGLVLPYKYQVLAEMFRSMDTIVGMLHNRSETPTFAKVQRGVQDMMRRRFEECNVGQIKTVYPASYRFRQERSVPTFKDGTRRSDYQLTIEPLLEQEADGAAPQLTASRLLQRRQIFSQKLVEHVKEHHKAFLASLSPAMVVPEDQLTRWHPRFNVDEVPDIEPAALPQPPATEKLTTAQEVLARARNLISPRMEKALSQLALRSAAPSSPGSPRPALPATPPATPPAASPSALKGVSQDLLERIRAKEAQKQLAQMTRCPEQEQRLQRLERLPELARVLRSVFVSERKPALSMEVACARMVGSCCTIMSPGEMEKHLLLLSELLPDWLSLHRIRTDTYVKLDKAADLAHITARLAHQTRAEEGL
In the case of B1, the binding is reported as “binds”.

— article PMC4743000
